Test results from PubChem BioAssay AID662 (National Center for Advancing Translational Sciences (NCATS), 2007).
“And” between values parts separate entries of the source, which are not always exact repeats. Equal values may be shown once. The list shows a part of the results. Shown are side measurements of this screen, not its main read-out; they come without a call. Compounds called inactive in the main read-out are mostly missing here. The note in brackets gives the kind of curve behind each potency; many fits are weak.

assay: Cell signaling CRE-BLA (Fsk stim); conditions: CHO CRE-bla reporter (cAMP response element driving beta-lactamase), forskolin EC10, beta-lactamase ratio; measured here: 460 nm blue channel
Summary of the method: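 Modulation of forskolin-driven signalling is measured in CHO cells carrying a CRE-controlled beta-lactamase reporter. Cells are stimulated with EC10 NKH 477 in the presence of titrated compound for 3 h at 37 °C, then loaded with CCF4 for 2 h at room temperature.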

**Q.** Which AC50 does the source give for CS(=O)(=O)Nc1ccc(Cc2noc(-c3ccc4[nH]cc(CCN)c4c3)n2)cc1 here?
**A.** The AC50 was 7.94 µM [falling, partial curve, poor fit].

**Q.** For Cc1nc2cc(F)ccc2n1C1CCN(Cc2nnnn2CCc2ccccc2)CC1, which AC50 is on record?
**A.** The AC50 was 3.98 µM [rising, partial curve].

**Q.** With CC(=O)Nc1ccc(OC(=O)N(C)c2ccccc2)cc1 as the compound, how does the AC50 read?
**A.** Its AC50 is 0.00316 µM [falling, full curve].

**Q.** With N[C@@H](Cc1c[nH]c2ccccc12)c1nnc(SCc2c(F)cccc2Cl)o1 as the compound, how does the AC50 read?
**A.** The AC50 was 25.1 µM [rising, single point].

**Q.** Which AC50 does the source give for C/C=C(\C)C(=O)O[C@@H]1C(C)=C2[C@H]([C@@H]1OC(=O)CCCCCCC)[C@@](C)(OC(C)=O)C[C@@H](OC(=O)CCC)[C@@]1(O)[C@H]2OC(=O)[C@]1(C)O here?
**A.** Its AC50 is 0.0251 µM [rising, full curve].

**Q.** With C[C@]1(O)CC[C@H]2[C@@H]3[C@@H](O)CC4=CC(=O)CC[C@@]4(C)[C@H]3CC[C@]21C as the compound, how does the AC50 read?
**A.** Its AC50 is 3.16 µM [falling, single point].

**Q.** With O=c1[nH]c(=O)n(C2CCCCCC2)c(O)c1C=NCC1CCCO1 (stereo unspecified) as the compound, how does the AC50 read?
**A.** The AC50 was 12.6 µM [rising, single point].

**Q.** For c1cncc(C2CC(c3cccs3)n3ncnc3N2)c1 (stereo unspecified), which AC50 is on record?
**A.** The AC50 was 0.00794 µM [falling, full curve, poor fit].

**Q.** Which AC50 does the source give for CCC(=NC1CCN(Cc2ccccc2)CC1)c1c(O)[nH]c(=O)[nH]c1=O here?
**A.** Its AC50 is 25.1 µM [rising, single point].

**Q.** For CCCc1cc2c(n1Cc1ccco1)C(C)C1CN(C(=O)c3ccccc3)C(C)(C(=O)OC)C21 (stereo unspecified), which AC50 is on record?
**A.** The AC50 was 20 µM [rising, single point].

**Q.** With O=c1c2ccccc2[se]n1-c1ccccc1 as the compound, how does the AC50 read?
**A.** The AC50 was 15.8 µM [falling, partial curve] and 3.98 µM [falling, full curve, poor fit].

**Q.** With CCCCN=Cc1c(O)n(-c2c(C)cc(C)cc2C)c(=O)[nH]c1=O as the compound, how does the AC50 read?
**A.** Its AC50 is 12.6 µM [rising, single point].

**Q.** With O=C(Cn1ncc2c3ccccc3n(Cc3ccccc3F)c2c1=O)N1CCC2(CC1)OCCO2 as the compound, how does the AC50 read?
**A.** Its AC50 is 0.126 µM [falling, full curve, poor fit].

**Q.** For O=C(COc1ccccc1)N1CCN(C2CCCC2)CC1, which AC50 is on record?
**A.** Its AC50 is 0.00631 µM [falling, full curve].

**Q.** For COc1ccc(N=C(C)c2c(O)n(C)c(=O)n(C)c2=O)c(OC)c1, which AC50 is on record?
**A.** Its AC50 is 0.794 µM [rising, full curve].

**Q.** For COc1cc2c(cc1O)C[C@H]1c3c(cc(OC)c(O)c3-2)CCN1C, which AC50 is on record?
**A.** Its AC50 is 7.94 µM [falling, partial curve, poor fit].

**Q.** Which AC50 does the source give for Cn1c(O)c(C=Nc2ccc3c(c2)CCC3)c(=O)n(C)c1=O here?
**A.** The AC50 was 12.6 µM [rising, partial curve].

**Q.** With Cc1cccc(C)c1NC1=NCCCCS1 as the compound, how does the AC50 read?
**A.** The AC50 was 31.6 µM [falling, single point].

**Q.** With O=C(CCc1nc(-c2ccccc2F)no1)N1CCC2(CC1)OCCO2 as the compound, how does the AC50 read?
**A.** The AC50 was 25.1 µM [falling, single point].

**Q.** For CNc1ccc2oc(C[C@H]3O[C@]4(CC[C@H]3C)O[C@H]([C@H](C)C(=O)c3ccc[nH]3)[C@H](C)C[C@H]4C)nc2c1C(=O)O, which AC50 is on record?
**A.** Its AC50 is 0.251 µM [rising, full curve].

**Q.** For Nc1ccccc1N=Cc1c(O)n(CCC2=CCCCC2)c(=O)[nH]c1=O, which AC50 is on record?
**A.** Its AC50 is 25.1 µM [rising, partial curve].

**Q.** For CSC([N-]/N=C/c1cccc(C)n1)=[S]=[Cu].CS[C@H]([S-])[N-]/N=C/c1cccc(C)n1, which AC50 is on record?
**A.** Its AC50 is 5.01 µM [falling, single point].

**Q.** Which AC50 does the source give for Cc1ccc(CN2CCN(C)CC2)c(C)c1 here?
**A.** The AC50 was 0.00316 µM [falling, full curve].

**Q.** Which AC50 does the source give for CCC(=NCC1CCCO1)c1c(O)n(-c2ccccc2)c(=O)[nH]c1=O (stereo unspecified) here?
**A.** Its AC50 is 1 µM [rising, full curve, poor fit].

**Q.** Which AC50 does the source give for CCNc1nc(Cl)nc(NC(C)C)n1 here?
**A.** The AC50 was 10 µM [rising, full curve].

**Q.** Which AC50 does the source give for Oc1c(Br)c(Br)c(Br)c(Br)c1Br here?
**A.** Its AC50 is 15.8 µM [falling, partial curve, poor fit].

**Q.** Which AC50 does the source give for CN1C(=O)N(C)C(=O)C2(Cc3c(ccc4ccccc34)N(C)C2)C1=O here?
**A.** Its AC50 is 7.94 µM [falling, partial curve].

**Q.** Which AC50 does the source give for c1ccc2c(c1)-c1cccc3cccc-2c13 here?
**A.** The AC50 was 12.6 µM [rising, full curve].

**Q.** With COc1cc(OC)cc(-n2nc(C(=O)N3CCC4(CC3)OCCO4)c3ccccc3c2=O)c1 as the compound, how does the AC50 read?
**A.** Its AC50 is 10 µM [rising, partial curve, poor fit].

**Q.** For C=CCn1c(O)c(C(C)=Nc2ccc(N(CC)CC)cc2)c(=O)[nH]c1=O, which AC50 is on record?
**A.** The AC50 was 25.1 µM [rising, single point].

**Q.** Which AC50 does the source give for Cc1cccn2c(=O)c3cc(C(=O)N4CCC5(CC4)OCCO5)n(C)c3nc12 here?
**A.** Its AC50 is 0.398 µM [rising, full curve].

**Q.** With Cc1ccc(CC2C(=O)N(C)C(=O)N(C)C2=O)s1 as the compound, how does the AC50 read?
**A.** The AC50 was 0.1 µM [rising, full curve].

**Q.** With CN(C)c1ccc(N=O)cc1 as the compound, how does the AC50 read?
**A.** Its AC50 is 10 µM [falling, partial curve].

**Q.** For CC(C)(c1ccccc1)c1ccc(O)cc1, which AC50 is on record?
**A.** Its AC50 is 10 µM [rising, full curve].

**Q.** With CCCCn1c(O)c(C(C)=NCCc2ccccc2)c(=O)[nH]c1=O as the compound, how does the AC50 read?
**A.** Its AC50 is 25.1 µM [rising, single point].

**Q.** Which AC50 does the source give for O=c1[nH]c(=O)n(CCC2=CCCCC2)c(O)c1C=NCCN1CCNCC1 here?
**A.** The AC50 was 5.01 µM [falling, full curve].

**Q.** With Cc1ccc(-n2c(O)c(C=Nc3ccccc3N)c(=O)[nH]c2=O)cc1C as the compound, how does the AC50 read?
**A.** Its AC50 is 0.00794 µM [falling, full curve, poor fit].

**Q.** With O=C(Cn1cnc2sc3c(c2c1=O)CCCC3)NCCC(=O)N1CCC2(CC1)OCCO2 as the compound, how does the AC50 read?
**A.** The AC50 was 25.1 µM [falling, single point].

**Q.** Which AC50 does the source give for CCCCCn1c(N)c(C(=O)NCCN2CCOCC2)c2nc3ccccc3nc21 here?
**A.** The AC50 was 12.6 µM [rising, partial curve].

**Q.** With C=CCn1c(O)c(C(CC)=Nc2ccccc2NC(C)=O)c(=O)[nH]c1=O as the compound, how does the AC50 read?
**A.** The AC50 was 10 µM [falling, single point].

**Q.** Which AC50 does the source give for CCC(C)N1C(=O)NC(=O)C2(Cc3c(ccc4ccccc34)N(C)C2)C1=O (stereo unspecified) here?
**A.** The AC50 was 7.94 µM [falling, partial curve].
